# The shares of active, inactive and inconclusive entries below differ from those in the screen. For some of these results: Where the call is inconclusive, the potency comes from a doubtful curve fit. Active and inactive are the calls of the source. The calls were made as follows: active = hit-call score of the fitted dose curve at least 0.9, where 1 is the maximum; inconclusive = response in the unintended direction; inactive = score below 0.9.
# Amino acid sequences for entries named in this document (tags omitted). A change or cut given only in a name is not applied to a line headed by its entry.
# UniProt P37231: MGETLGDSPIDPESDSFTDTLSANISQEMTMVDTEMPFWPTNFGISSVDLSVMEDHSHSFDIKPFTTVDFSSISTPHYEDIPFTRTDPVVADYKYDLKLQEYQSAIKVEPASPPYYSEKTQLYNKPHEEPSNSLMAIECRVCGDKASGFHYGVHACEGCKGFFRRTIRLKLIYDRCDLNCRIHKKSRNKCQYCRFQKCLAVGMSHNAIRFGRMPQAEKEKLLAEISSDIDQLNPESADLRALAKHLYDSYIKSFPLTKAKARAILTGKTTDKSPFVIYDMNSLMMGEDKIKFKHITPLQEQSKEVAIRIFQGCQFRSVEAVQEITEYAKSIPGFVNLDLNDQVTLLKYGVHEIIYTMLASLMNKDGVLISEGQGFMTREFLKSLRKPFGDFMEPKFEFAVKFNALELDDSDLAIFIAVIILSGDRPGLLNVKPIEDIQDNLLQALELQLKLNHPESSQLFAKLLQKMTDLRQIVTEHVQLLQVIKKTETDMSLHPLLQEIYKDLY
# UniProt Q96RI1: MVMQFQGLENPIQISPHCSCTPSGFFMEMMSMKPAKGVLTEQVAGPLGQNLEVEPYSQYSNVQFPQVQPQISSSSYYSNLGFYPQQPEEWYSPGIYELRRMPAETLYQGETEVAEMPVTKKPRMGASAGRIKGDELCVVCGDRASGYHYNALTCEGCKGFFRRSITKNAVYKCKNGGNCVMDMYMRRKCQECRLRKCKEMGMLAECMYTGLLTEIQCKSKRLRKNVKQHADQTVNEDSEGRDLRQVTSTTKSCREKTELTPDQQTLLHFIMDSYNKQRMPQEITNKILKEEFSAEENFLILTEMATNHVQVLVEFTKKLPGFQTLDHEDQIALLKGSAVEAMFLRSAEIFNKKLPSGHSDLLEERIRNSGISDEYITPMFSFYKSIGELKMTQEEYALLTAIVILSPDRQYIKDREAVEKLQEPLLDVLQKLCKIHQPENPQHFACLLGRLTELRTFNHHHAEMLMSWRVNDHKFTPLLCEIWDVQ
# Assays:
# [1] = molecular target: Peroxisome proliferator-activated receptor gamma (Homo sapiens) (UniProt P37231); assay: NVS_NR_hPPARg: NovaScreen (NVS) Nuclear Receptor Binding Assay for human Peroxisome Proliferator-activated Receptor gamma (PPARg) (AID 2283370)
# How it was run: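 FP read-out, 2 h post-dose, cell-free extracted receptor protein. Signal loss vs DMSO negative control = binding activity. Single-conc duplicate HTS at 25 uM; concentration-response follow-up for actives.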
# [2] = molecular target: Bile acid receptor (Homo sapiens) (UniProt Q96RI1); assay: OT_FXR_FXRSRC1_0480: Odyssey Thera (OT) 8-hour HEK293T Protein-Complementation Assay for Farnesoid X receptor/SRC-1 Co-activator (AID 2283383)
# How it was run: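 Human kidney HEK293T cells carried FXR/SRC-1 fragment-complementation constructs. Compounds were added and incubated 8 h. Reporter reassembly upon receptor–co-activator interaction was then quantified by fluorescence, with curves fitted in the positive direction relative to DMSO.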
# [3] = molecular target: Bile acid receptor (Homo sapiens) (UniProt Q96RI1); assay: OT_FXR_FXRSRC1_1440: Odyssey Thera (OT) 24-hour HEK293T Protein-Complementation Assay for Farnesoid X receptor/SRC-1 Co-activator (AID 2283384)
# How it was run: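 Compounds are applied to human kidney HEK293T cells expressing bait and prey fused to reporter protein fragments; after 24 h, reconstituted reporter fluorescence is measured. Activity is fitted as signal gain over DMSO.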
# [4] = ACEA_AR_antagonist_AUC_viability: ACEA Biosciences xCELLigence Real-Time Cell Analysis on Androgen Receptor Antagonism for Viability (AID 2283776);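 also: 22Rv1 human prostate cancer cells growing on impedance electrode plates; area under impedance growth curve at 80 h after dosing as viability; hits lower the growth signal relative to DMSO meaning cytotoxicity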
# How it was run: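 Viability endpoint from label-free cell-index monitoring: 22Rv1 cultures treated with an eight-point 1:4 dilution series starting at 100 uM final, AUC at 80 h fitted against DMSO.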
# [5] = Tanguay_ZF_120hpf_YSE_legacy: (Legacy) Oregon State University Tanguay Lab 120 Hour Post-fertilization zebrafish Assay for Yolk Sac Edema (AID 2283634);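 as to AC50: actives raise the incidence of yolk sac edema above the DMSO baseline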
# How it was run: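 Binary brightfield scoring of yolk sac edema at 120 hpf; DMSO baseline, gain-of-signal fitting. Dechorionated 5D larvae, one per well, static exposure 6–120 hpf, 28C, 0.64% DMSO. Dead embryos not scored.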
# [6] = Tanguay_ZF_120hpf_SOMI_legacy: (Legacy) Oregon State University Tanguay Lab 120 Hour Post-fertilization zebrafish Assay for Somite Malformation (AID 2283647)
# How it was run: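 Binary brightfield scoring of somite defects at 120 hpf in 5D wild-type larvae; one dechorionated embryo per well, static exposure from 6 hpf, 28C, sealed and dark. Final DMSO 0.64%; trimethyltin chloride 5uM positive control.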
# [7] = Tanguay_ZF_120hpf_CFIN_legacy: (Legacy) Oregon State University Tanguay Lab 120 Hour Post-fertilization zebrafish Assay for Caudal Fin Malformation (AID 2283649)
# How it was run: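 Dechorionated 5D wild-type zebrafish, static exposure 6–120 hpf, 28C, sealed and dark, 0.64% v/v DMSO final. Binary fin-malformation call at 120 hpf, brightfield; gain of signal vs DMSO baseline.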
# [8] = Tanguay_ZF_120hpf_TR_legacy: (Legacy) Oregon State University Tanguay Lab 120 Hour Post-fertilization zebrafish Assay for Touch Response (AID 2283667)
# How it was run: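 Tropical 5D wild-type zebrafish embryos statically exposed to 120 hpf at 28°C, sealed and dark-covered, 0.64% DMSO final; touch response scored as present/absent by brightfield microscopy at 120 hpf. Trimethyltin chloride 5 uM positive control; dead embryos not scored.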
# [9] = STM_H9_OrnCyssISnorm_ratio: Stemina devTOX quickPredict H9 human embryonic stem cell (hESC)-based Assay for Ornithine (ORN):Cystine (CYSS) Ratio (AID 2283714)
# How it was run: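 Undifferentiated H9 hESCs exposed 72 h, media and compound replaced every 24 h; final 24-h conditioned media deproteinized and analysed by UPLC-HRMS against C13 spike-ins. Value is the internal-standard-normalized ORN/CYSS ratio versus 0.1% DMSO.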
# [10] = Tanguay_ZF_120hpf_EYE_legacy: (Legacy) Oregon State University Tanguay Lab 120 Hour Post-fertilization zebrafish Assay for Eye Malformation (AID 2283636);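 also: binary presence or absence of eye malformation scored by brightfield in 120 hpf larvae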
# How it was run: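 Dechorionated Tropical 5D zebrafish embryos, one per well from 6 hpf, static exposure to 120 hpf at 28C, 0.64% DMSO. Eye malformation scored present/absent by brightfield; dead embryos not scored.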
# [11] = Tanguay_ZF_120hpf_OTIC_legacy: (Legacy) Oregon State University Tanguay Lab 120 Hour Post-fertilization zebrafish Assay for Otic Vesicle Malformation (AID 2283639)
# How it was run: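 Embryos from 5D wild-type adults exposed in plates; DMSO 0.64% v/v final. Sealed, light-protected, 28C, static to 120 hpf. Otic vesicle malformation recorded as binary endpoint; gain-of-signal fitted vs DMSO.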
# [12] = Tanguay_ZF_120hpf_BRAI_legacy: (Legacy) Oregon State University Tanguay Lab 120 Hour Post-fertilization zebrafish Assay for Brain Malformation (AID 2283641)
# How it was run: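 Read-out: binary brain morphology call at 120 hpf (brightfield), fitted in gain-of-signal direction vs DMSO. Wild-type Tropical 5D embryos, static exposure, 28C, 0.64% DMSO final; 5uM trimethyltin chloride as positive control.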
smiles,measurement,setting,value
CC(C)Nc1ccc(NC(C)C)c2c1C(=O)c1ccccc1C2=O,outcome,[1],inactive
same,AC50,[2],inconclusive: 0.0552 µM
same,AC50,[3],active: 18.2 µM
same,outcome,[4],inactive
Cn1c(=O)c2[nH]cnc2n(C)c1=O,outcome,[2],inactive
same,outcome,[5],inactive
same,AC50,[6],inconclusive: 1.13 µM
same,AC50,[7],inconclusive: 110 µM
same,outcome,[8],inactive
same,AC50,[9],inconclusive: 5.5 µM
same,AC50,[4],inconclusive: 0.0221 µM
CNC(C)=O,AC50,[5],inconclusive: 202 µM
same,AC50,[10],inconclusive: 0.323 µM
same,AC50,[11],inconclusive: 34.2 µM
same,AC50,[6],inconclusive: 35 µM
COc1ccc(-n2nc(C(F)F)cc2-c2ccc(S(C)=O)cc2)cc1 (centres undefined),AC50,[10],active: 51.6 µM
same,AC50,[12],active: 40.4 µM
same,AC50,[7],active: 12.8 µM
same,AC50,[8],active: 38.2 µM

# Taken from the results shown for reference:
smiles,measurement,setting,value
Cn1c(=O)c2[nH]cnc2n(C)c1=O,AC50,[9],inconclusive: 5.5 µM
same,AC50,[4],inconclusive: 0.0221 µM
CNC(C)=O,AC50,[5],inconclusive: 202 µM
same,AC50,[10],inconclusive: 0.323 µM
same,AC50,[11],inconclusive: 34.2 µM

# Source: PubChem BioAssay (EPA / NIEHS)
